Experimental data taken from publication PMC5833375.
These are yes or no findings as the source states them, for the method shown. In cells and extracts the contact can be indirect. Some binding calls cover weakened binding; strength is not graded here. Tags and fused reporters may be left off the sequences shown.

Protein sequences, listed by entry. Tags and fused reporters are not part of them.
UniProt Q9UNE7: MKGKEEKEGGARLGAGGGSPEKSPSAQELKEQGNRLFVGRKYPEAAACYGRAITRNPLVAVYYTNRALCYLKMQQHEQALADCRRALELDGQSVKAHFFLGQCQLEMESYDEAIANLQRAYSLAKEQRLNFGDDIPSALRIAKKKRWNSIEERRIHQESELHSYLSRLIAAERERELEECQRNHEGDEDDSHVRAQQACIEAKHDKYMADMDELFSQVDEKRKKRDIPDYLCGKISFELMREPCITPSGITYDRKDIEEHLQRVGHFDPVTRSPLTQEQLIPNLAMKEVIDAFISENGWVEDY
UniProt Q14258: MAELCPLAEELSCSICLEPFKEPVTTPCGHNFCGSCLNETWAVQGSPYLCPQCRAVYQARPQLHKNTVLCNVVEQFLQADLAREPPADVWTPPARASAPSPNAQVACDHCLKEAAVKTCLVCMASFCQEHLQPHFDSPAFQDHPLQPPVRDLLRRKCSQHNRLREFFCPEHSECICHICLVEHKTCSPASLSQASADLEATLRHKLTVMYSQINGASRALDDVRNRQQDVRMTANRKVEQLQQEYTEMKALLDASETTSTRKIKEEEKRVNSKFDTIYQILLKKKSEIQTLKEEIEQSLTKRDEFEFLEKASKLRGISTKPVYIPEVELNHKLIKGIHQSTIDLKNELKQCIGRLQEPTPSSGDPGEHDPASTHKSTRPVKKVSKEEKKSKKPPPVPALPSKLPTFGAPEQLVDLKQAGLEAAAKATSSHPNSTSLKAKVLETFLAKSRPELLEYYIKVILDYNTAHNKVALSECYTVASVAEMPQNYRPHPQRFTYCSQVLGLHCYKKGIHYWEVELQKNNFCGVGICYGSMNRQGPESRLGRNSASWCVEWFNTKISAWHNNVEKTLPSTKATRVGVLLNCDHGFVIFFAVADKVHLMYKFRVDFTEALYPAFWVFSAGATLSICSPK

Target: human wild-type CHIP N-terminally tagged with Xpress-6x-His (carboxyl terminus of Hsp70-interacting protein) (human) (UniProt Q9UNE7)
Assay: co-IP; HEK293 cells co-transfected (also with UBE1L and Myc-UbcH8; Fig. 2b also with FLAG-ISG15); lysates immunoprecipitated with anti-Xpress antibody and Protein A-Sepharose, 4 °C, washed with 50 mM Tris pH 7.5, 1% Nonidet P40, 150 mM NaCl, 10% glycerol; western blot with anti-HERC5 or anti-Myc

| binding | Molecule |
| --- | --- |
| binds | Myc-tagged EFP (from UniProt Q14258 1-630) (enzyme) |
| binds | FLAG-tagged HERC5 (enzyme, UniProt Q9UII4 1-1024) MERRSRRKSRRNGRSTAGKAAATQPAKSPGAQLWLFPSAAGLHRALLRRVEVTRQLCCSPGRLAVLERGGAGVQVHQLLAGSGGARTPKCIKLGKNMKIHSVDQGAEHMLILSSDGKPFEYDNYSMKHLRFESILQEKKIIQITCGDYHSLALSKGGELFAWGQNLHGQLGVGRKFPSTTTPQIVEHLAGVPLAQISAGEAHSMALSMSGNIYSWGKNECGQLGLGHTESKDDPSLIEGLDNQKVEFVACGGSHSALLTQDGLLFTFGAGKHGQLGHNSTQNELRPCLVAELVGYRVTQIACGRWHTLAYVSDLGKVFSFGSGKDGQLGNGGTRDQLMPLPVKVSSSEELKLESHTSEKELIMIAGGNQSILLWIKKENSYVNLKRTIPTLNEGTVKRWIADVETKRWQSTKREIQEIFSSPACLTGSFLRKRRTTEMMPVYLDLNKARNIFKELTQKDWITNMITTCLKDNLLKRLPFHSPPQEALEIFFLLPECPMMHISNNWESLVVPFAKVVCKMSDQSSLVLEEYWATLQESTFSKLVQMFKTAVICQLDYWDESAEENGNVQALLEMLKKLHRVNQVKCQLPESIFQVDELLHRLNFFVEVCRRYLWKMTVDASENVQCCVIFSHFPFIFNNLSKIKLLHTDTLLKIESKKHKAYLRSAAIEEERESEFALRPTFDLTVRRNHLIEDVLNQLSQFENEDLRKELWVSFSGEIGYDLGGVKKEFFYCLFAEMIQPEYGMFMYPEGASCMWFPVKPKFEKKRYFFFGVLCGLSLFNCNVANLPFPLALFKKLLDQMPSLEDLKELSPDLGKNLQTLLDDEGDNFEEVFYIHFNVHWDRNDTNLIPNGSSITVNQTNKRDYVSKYINYIFNDSVKAVYEEFRRGFYKMCDEDIIKLFHPEELKDVIVGNTDYDWKTFEKNARYEPGYNSSHPTIVMFWKAFHKLTLEEKKKFLVFLTGTDRLQMKDLNNMKITFCCPESWNERDPIRALTCFSVLFLPKYSTMETVEEALQEAINNNRGFG |
